For 1 substance, binding results are on record in PMC9161877.

The chains behind the UniProt entries cited, without tags or fusion partners.
UniProt Q15906: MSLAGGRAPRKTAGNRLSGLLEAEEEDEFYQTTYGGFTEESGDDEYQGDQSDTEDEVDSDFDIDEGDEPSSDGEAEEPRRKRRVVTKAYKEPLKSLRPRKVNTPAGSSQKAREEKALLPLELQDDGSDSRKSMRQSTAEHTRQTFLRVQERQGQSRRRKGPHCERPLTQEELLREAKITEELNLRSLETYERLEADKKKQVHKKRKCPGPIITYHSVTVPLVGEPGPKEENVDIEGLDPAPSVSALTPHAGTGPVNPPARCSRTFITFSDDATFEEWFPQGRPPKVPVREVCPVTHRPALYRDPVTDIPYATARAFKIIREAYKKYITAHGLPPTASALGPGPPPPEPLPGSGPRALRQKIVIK
UniProt Q92993: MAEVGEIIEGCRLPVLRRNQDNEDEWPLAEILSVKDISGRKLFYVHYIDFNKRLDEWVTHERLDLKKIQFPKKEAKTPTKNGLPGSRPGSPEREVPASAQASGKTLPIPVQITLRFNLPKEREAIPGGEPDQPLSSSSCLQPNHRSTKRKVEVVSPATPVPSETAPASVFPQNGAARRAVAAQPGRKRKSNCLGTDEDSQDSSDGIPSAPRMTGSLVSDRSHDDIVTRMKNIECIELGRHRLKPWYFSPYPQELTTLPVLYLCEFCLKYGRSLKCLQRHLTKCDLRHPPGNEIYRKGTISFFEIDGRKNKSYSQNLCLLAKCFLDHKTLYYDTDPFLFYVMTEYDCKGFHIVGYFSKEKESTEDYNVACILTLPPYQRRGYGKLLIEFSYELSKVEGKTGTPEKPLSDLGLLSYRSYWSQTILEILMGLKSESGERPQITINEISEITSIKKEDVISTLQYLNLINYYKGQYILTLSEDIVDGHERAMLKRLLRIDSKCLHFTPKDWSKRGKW

Results are given in words; binding and its absence hold for the method and conditions named. In cells and extracts the contact can be indirect. Some entries that bind do so weakly or less than the wild type.

This assay addresses Vacuolar protein sorting-associated protein 72 homolog (VPS72) (human (endogenous in HuH7)) (UniProt Q15906). The assay can be described thus: co-IP; HuH7 cells lysed in RIPA buffer with protease inhibitor cocktail; supernatants incubated with corresponding antibodies overnight at 4°C; protein A + G Agarose 2 h; washed with PBS; western blot. On the technique in general: Immunoblotting shows a protein as a band on a membrane.

“lysine acetyltransferase 5 (KAT5) (from UniProt Q92993 1-513)”: the binding entry is “binds”.
